Results taken from paper PMC12579238.
No constants are given. Whether binding was seen depends on the method and setting. In cells and extracts the contact can be indirect. A yes stands for co-enrichment or nearness to the bait. Other partners may have been found. Values belong to the binder of their own block, whether it stands above or below them.

Biological target: T1, CLN7 (human (endogenous in SH-SY5Y)) (UniProt Q8NHS3)
T1 sequence: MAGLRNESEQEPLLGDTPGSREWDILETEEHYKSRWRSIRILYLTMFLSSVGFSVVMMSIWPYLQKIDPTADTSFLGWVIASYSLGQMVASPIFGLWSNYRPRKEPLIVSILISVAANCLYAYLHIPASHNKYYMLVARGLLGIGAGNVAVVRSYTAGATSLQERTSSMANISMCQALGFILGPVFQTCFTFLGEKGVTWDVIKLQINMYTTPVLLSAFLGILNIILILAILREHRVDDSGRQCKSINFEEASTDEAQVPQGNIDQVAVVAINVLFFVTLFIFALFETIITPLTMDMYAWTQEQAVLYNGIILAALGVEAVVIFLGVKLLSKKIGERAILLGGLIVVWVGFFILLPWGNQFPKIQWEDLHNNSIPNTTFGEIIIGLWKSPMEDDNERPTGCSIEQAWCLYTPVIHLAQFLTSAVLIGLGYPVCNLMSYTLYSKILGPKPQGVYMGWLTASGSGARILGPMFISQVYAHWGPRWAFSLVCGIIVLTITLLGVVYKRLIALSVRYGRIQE
Experiment: affinity purification with mass spectrometry; endogenous CLN7 immunoprecipitated from 2.5 mg SH-SY5Y lysate with a polyclonal anti-CLN7 antibody raised against L9 (351-421aa, Proteintech) on G-sepharose beads; IgG as non-specific binding control; 4 independent replicates; cells under steady state culture conditions

B1: WDR3 (protein, UniProt Q9UNX4 1-943)
chain: MGLTKQYLRYVASAVFGVIGSQKGNIVFVTLRGEKGRYVAVPACEHVFIWDLRKGEKILILQGLKQEVTCLCPSPDGLHLAVGYEDGSIRIFSLLSGEGNVTFNGHKAAITTLKYDQLGGRLASGSKDTDIIVWDVINESGLYRLKGHKDAITQALFLREKNLLVTSGKDTMVKWWDLDTQHCFKTMVGHRTEVWGLVLLSEEKRLITGASDSELRVWDIAYLQEIEDPEEPDPKKIKGSSPGIQDTLEAEDGAFETDEAPEDRILSCRKAGSIMREGRDRVVNLAVDKTGRILACHGTDSVLELFCILSKKEIQKKMDKKMKKARKKAKLHSSKGEEEDPEVNVEMSLQDEIQRVTNIKTSAKIKSFDLIHSPHGELKAVFLLQNNLVELYSLNPSLPTPQPVRTSRITIGGHRSDVRTLSFSSDNIAVLSAAADSIKIWNRSTLQCIRTMTCEYALCSFFVPGDRQVVIGTKTGKLQLYDLASGNLLETIDAHDGALWSMSLSPDQRGFVTGGADKSVKFWDFELVKDENSTQKRLSVKQTRTLQLDEDVLCVSYSPNQKLLAVSLLDCTVKIFYVDTLKFFLSLYGHKLPVICMDISHDGALIATGSADRNVKIWGLDFGDCHKSLFAHDDSVMYLQFVPKSHLFFTAGKDHKIKQWDADKFEHIQTLEGHHQEIWCLAVSPSGDYVVSSSHDKSLRLWERTREPLILEEEREMEREAEYEESVAKEDQPAVPGETQGDSYFTGKKTIETVKAAERIMEAIELYREETAKMKEHKAICKAAGKEVPLPSNPILMAYGSISPSAYVLEIFKGIKSSELEESLLVLPFSYVPDILKLFNEFIQLGSDVELICRCLFFLLRIHFGQITSNQMLVPVIEKLRETTISKVSQVRDVIGFNMAGLDYLKRECEAKSEVMFFADATSHLEEKKRKRKKREKLILTLT
binding: binds

B3: VPS16 (protein, UniProt Q9H269 1-839)
chain: MDCYTANWNPLGDSAFYRKYELYSMDWDLKEELRDCLVAAAPYGGPIALLRNPWRKEKAASVRPVLDIYSASGMPLASLLWKSGPVVSLGWSAEEELLCVQEDGAVLVYGLHGDFRRHFSMGNEVLQNRVLDARIFHTEFGSGVAILTGAHRFTLSANVGDLKLRRMPEVPGLQSAPSCWTVLCQDRVAHILLAVGPDLYLLDHAACSAVTPPGLAPGVSSFLQMAVSFTYRHLALFTDTGYIWMGTASLKEKLCEFNCNIRAPPKQMVWCSRPRSKERAVVVAWERRLMVVGDAPESIQFVLDEDSYLVPELDGVRIFSRSTHEFLHEVPAASEEIFKIASMAPGALLLEAQKEYEKESQKADEYLREIQELGQLTQAVQQCIEAAGHEHQPDMQKSLLRAASFGKCFLDRFPPDSFVHMCQDLRVLNAVRDYHIGIPLTYSQYKQLTIQVLLDRLVLRRLYPLAIQICEYLRLPEVQGVSRILAHWACYKVQQKDVSDEDVARAINQKLGDTPGVSYSDIAARAYGCGRTELAIKLLEYEPRSGEQVPLLLKMKRSKLALSKAIESGDTDLVFTVLLHLKNELNRGDFFMTLRNQPMALSLYRQFCKHQELETLKDLYNQDDNHQELGSFHIRASYAAEERIEGRVAALQTAADAFYKAKNEFAAKATEDQMRLLRLQRRLEDELGGQFLDLSLHDTVTTLILGGHNKRAEQLARDFRIPDKRLWWLKLTALADLEDWEELEKFSKSKKSPIGYLPFVEICMKQHNKYEAKKYASRVGPEQKVKALLLVGDVAQAADVAIEHRNEAELSLVLSHCTGATDGATADKIQRARAQAQKK
binding: binds

B5: VPS18 (protein, UniProt Q9P253 1-973)
chain: MASILDEYENSLSRSAVLQPGCPSVGIPHSGYVNAQLEKEVPIFTKQRIDFTPSERITSLVVSSNQLCMSLGKDTLLRIDLGKANEPNHVELGRKDDAKVHKMFLDHTGSHLLIALSSTEVLYVNRNGQKVRPLARWKGQLVESVGWNKALGTESSTGPILVGTAQGHIFEAELSASEGGLFGPAPDLYFRPLYVLNEEGGPAPVCSLEAERGPDGRSFVIATTRQRLFQFIGRAAEGAEAQGFSGLFAAYTDHPPPFREFPSNLGYSELAFYTPKLRSAPRAFAWMMGDGVLYGALDCGRPDSLLSEERVWEYPEGVGPGASPPLAIVLTQFHFLLLLADRVEAVCTLTGQVVLRDHFLEKFGPLKHMVKDSSTGQLWAYTERAVFRYHVQREARDVWRTYLDMNRFDLAKEYCRERPDCLDTVLAREADFCFRQRRYLESARCYALTQSYFEEIALKFLEARQEEALAEFLQRKLASLKPAERTQATLLTTWLTELYLSRLGALQGDPEALTLYRETKECFRTFLSSPRHKEWLFASRASIHELLASHGDTEHMVYFAVIMQDYERVVAYHCQHEAYEEALAVLARHRDPQLFYKFSPILIRHIPRQLVDAWIEMGSRLDARQLIPALVNYSQGGEVQQVSQAIRYMEFCVNVLGETEQAIHNYLLSLYARGRPDSLLAYLEQAGASPHRVHYDLKYALRLCAEHGHHRACVHVYKVLELYEEAVDLALQVDVDLAKQCADLPEEDEELRKKLWLKIARHVVQEEEDVQTAMACLASCPLLKIEDVLPFFPDFVTIDHFKEAICSSLKAYNHHIQELQREMEEATASAQRIRRDLQELRGRYGTVEPQDKCATCDFPLLNRPFYLFLCGHMFHADCLLQAVRPGLPAYKQARLEELQRKLGAAPPPAKGSARAKEAEGGAATAGPSREQLKADLDELVAAECVYCGELMIRSIDRPFIDPQRYEEEQLSWL
binding: binds

Now from value to binder:

binding: binds
B2: WDR59 (protein, UniProt Q6PJI9 1-974)
chain: MAARWSSENVVVEFRDSQATAMSVDCLGQHAVLSGRRFLYIVNLDAPFEGHRKISRQSKWDIGAVQWNPHDSFAHYFAASSNQRVDLYKWKDGSGEVGTTLQGHTRVISDLDWAVFEPDLLVTSSVDTYIYIWDIKDTRKPTVALSAVAGASQVKWNKKNANCLATSHDGDVRIWDKRKPSTAVEYLAAHLSKIHGLDWHPDSEHILATSSQDNSVKFWDYRQPRKYLNILPCQVPVWKARYTPFSNGLVTVMVPQLRRENSLLLWNVFDLNTPVHTFVGHDDVVLEFQWRKQKEGSKDYQLVTWSRDQTLRMWRVDSQMQRLCANDILDGVDEFIESISLLPEPEKTLHTEDTDHQHTASHGEEEALKEDPPRNLLEERKSDQLGLPQTLQQEFSLINVQIRNVNVEMDAADRSCTVSVHCSNHRVKMLVKFPAQYPNNAAPSFQFINPTTITSTMKAKLLKILKDTALQKVKRGQSCLEPCLRQLVSCLESFVNQEDSASSNPFALPNSVTPPLPTFARVTTAYGSYQDANIPFPRTSGARFCGAGYLVYFTRPMTMHRAVSPTEPTPRSLSALSAYHTGLIAPMKIRTEAPGNLRLYSGSPTRSEKEQVSISSFYYKERKSRRWKSKREGSDSGNRQIKAAGKVIIQDIACLLPVHKSLGELYILNVNDIQETCQKNAASALLVGRKDLVQVWSLATVATDLCLGPKSDPDLETPWARHPFGRQLLESLLAHYCRLRDVQTLAMLCSVFEAQSRPQGLPNPFGPFPNRSSNLVVSHSRYPSFTSSGSCSSMSDPGLNTGGWNIAGREAEHLSSPWGESSPEELRFGSLTYSDPRERERDQHDKNKRLLDPANTQQFDDFKKCYGEILYRWGLREKRAEVLKFVSCPPDPHKGIEFGVYCSHCRSEVRGTQCAICKGFTFQCAICHVAVRGSSNFCLTCGHGGHTSHMMEWFRTQEVCPTGCGCHCLLESTF

binding: binds
B4: WDR35 (protein, UniProt Q9P2L0 1-1181)
chain: MFFYLSKKISIPNNVKLQCVSWNKEQGFIACGGEDGLLKVLKLETQTDDAKLRGLAAPSNLSMNQTLEGHSGSVQVVTWNEQYQKLTTSDENGLIIVWMLYKGSWIEEMINNRNKSVVRSMSWNADGQKICIVYEDGAVIVGSVDGNRIWGKDLKGIQLSHVTWSADSKVLLFGMANGEIHIYDNQGNFMIKMKLSCLVNVTGAISIAGIHWYHGTEGYVEPDCPCLAVCFDNGRCQIMRHENDQNPVLIDTGMYVVGIQWNHMGSVLAVAGFQKAAMQDKDVNIVQFYTPFGEHLGTLKVPGKEISALSWEGGGLKIALAVDSFIYFANIRPNYKWGYCSNTVVYAYTRPDRPEYCVVFWDTKNNEKYVKYVKGLISITTCGDFCILATKADENHPQEENEMETFGATFVLVLCNSIGTPLDPKYIDIVPLFVAMTKTHVIAASKEAFYTWQYRVAKKLTALEINQITRSRKEGRERIYHVDDTPSGSMDGVLDYSKTIQGTRDPICAITASDKILIVGRESGTIQRYSLPNVGLIQKYSLNCRAYQLSLNCNSSRLAIIDISGVLTFFDLDARVTDSTGQQVVGELLKLERRDVWDMKWAKDNPDLFAMMEKTRMYVFRNLDPEEPIQTSGYICNFEDLEIKSVLLDEILKDPEHPNKDYLINFEIRSLRDSRALIEKVGIKDASQFIEDNPHPRLWRLLAEAALQKLDLYTAEQAFVRCKDYQGIKFVKRLGKLLSESMKQAEVVGYFGRFEEAERTYLEMDRRDLAIGLRLKLGDWFRVLQLLKTGSGDADDSLLEQANNAIGDYFADRQKWLNAVQYYVQGRNQERLAECYYMLEDYEGLENLAISLPENHKLLPEIAQMFVRVGMCEQAVTAFLKCSQPKAAVDTCVHLNQWNKAVELAKNHSMKEIGSLLARYASHLLEKNKTLDAIELYRKANYFFDAAKLMFKIADEEAKKGSKPLRVKKLYVLSALLIEQYHEQMKNAQRGKVKGKSSEATSALAGLLEEEVLSTTDRFTDNAWRGAEAYHFFILAQRQLYEGCVDTALKTALHLKDYEDIIPPVEIYSLLALCACASRAFGTCSKAFIKLKSLETLSSEQKQQYEDLALEIFTKHTSKDNRKPELDSLMEGGEGKLPTCVATGSPITEYQFWMCSVCKHGVLAQEISHYSFCPLCHSPVG

binding: binds
B6: WDR24 (protein, UniProt Q96S15 1-790)
chain: MEKMSRVTTALGGSVLTGRTMHCHLDAPANAISVCRDAAQVVVAGRSIFKIYAIEEEQFVEKLNLRVGRKPSLNLSCADVVWHQMDENLLATAATNGVVVTWNLGRPSRNKQDQLFTEHKRTVNKVCFHPTEAHVLLSGSQDGFMKCFDLRRKDSVSTFSGQSESVRDVQFSIRDYFTFASTFENGNVQLWDIRRPDRCERMFTAHNGPVFCCDWHPEDRGWLATGGRDKMVKVWDMTTHRAKEMHCVQTIASVARVKWRPECRHHLATCSMMVDHNIYVWDVRRPFVPAAMFEEHRDVTTGIAWRHPHDPSFLLSGSKDSSLCQHLFRDASQPVERANPEGLCYGLFGDLAFAAKESLVAAESGRKPYTGDRRHPIFFKRKLDPAEPFAGLASSALSVFETEPGGGGMRWFVDTAERYALAGRPLAELCDHNAKVARELGRNQVAQTWTMLRIIYCSPGLVPTANLNHSVGKGGSCGLPLMNSFNLKDMAPGLGSETRLDRSKGDARSDTVLLDSSATLITNEDNEETEGSDVPADYLLGDVEGEEDELYLLDPEHAHPEDPECVLPQEAFPLRHEIVDTPPGPEHLQDKADSPHVSGSEADVASLAPVDSSFSLLSVSHALYDSRLPPDFFGVLVRDMLHFYAEQGDVQMAVSVLIVLGERVRKDIDEQTQEHWYTSYIDLLQRFRLWNVSNEVVKLSTSRAVSCLNQASTTLHVNCSHCKRPMSSRGWVCDRCHRCASMCAVCHHVVKGLFVWCQGCSHGGHLQHIMKWLEGSSHCPAGCGHLCEYS
